From the supplement of paper PMC10849652
This is one part of the list.

Sequences of proteins named here, by UniProt entry; tags and fusion partners are left off. A change or cut given only in a name is not applied to a line headed by its entry.
UniProt Q96K76: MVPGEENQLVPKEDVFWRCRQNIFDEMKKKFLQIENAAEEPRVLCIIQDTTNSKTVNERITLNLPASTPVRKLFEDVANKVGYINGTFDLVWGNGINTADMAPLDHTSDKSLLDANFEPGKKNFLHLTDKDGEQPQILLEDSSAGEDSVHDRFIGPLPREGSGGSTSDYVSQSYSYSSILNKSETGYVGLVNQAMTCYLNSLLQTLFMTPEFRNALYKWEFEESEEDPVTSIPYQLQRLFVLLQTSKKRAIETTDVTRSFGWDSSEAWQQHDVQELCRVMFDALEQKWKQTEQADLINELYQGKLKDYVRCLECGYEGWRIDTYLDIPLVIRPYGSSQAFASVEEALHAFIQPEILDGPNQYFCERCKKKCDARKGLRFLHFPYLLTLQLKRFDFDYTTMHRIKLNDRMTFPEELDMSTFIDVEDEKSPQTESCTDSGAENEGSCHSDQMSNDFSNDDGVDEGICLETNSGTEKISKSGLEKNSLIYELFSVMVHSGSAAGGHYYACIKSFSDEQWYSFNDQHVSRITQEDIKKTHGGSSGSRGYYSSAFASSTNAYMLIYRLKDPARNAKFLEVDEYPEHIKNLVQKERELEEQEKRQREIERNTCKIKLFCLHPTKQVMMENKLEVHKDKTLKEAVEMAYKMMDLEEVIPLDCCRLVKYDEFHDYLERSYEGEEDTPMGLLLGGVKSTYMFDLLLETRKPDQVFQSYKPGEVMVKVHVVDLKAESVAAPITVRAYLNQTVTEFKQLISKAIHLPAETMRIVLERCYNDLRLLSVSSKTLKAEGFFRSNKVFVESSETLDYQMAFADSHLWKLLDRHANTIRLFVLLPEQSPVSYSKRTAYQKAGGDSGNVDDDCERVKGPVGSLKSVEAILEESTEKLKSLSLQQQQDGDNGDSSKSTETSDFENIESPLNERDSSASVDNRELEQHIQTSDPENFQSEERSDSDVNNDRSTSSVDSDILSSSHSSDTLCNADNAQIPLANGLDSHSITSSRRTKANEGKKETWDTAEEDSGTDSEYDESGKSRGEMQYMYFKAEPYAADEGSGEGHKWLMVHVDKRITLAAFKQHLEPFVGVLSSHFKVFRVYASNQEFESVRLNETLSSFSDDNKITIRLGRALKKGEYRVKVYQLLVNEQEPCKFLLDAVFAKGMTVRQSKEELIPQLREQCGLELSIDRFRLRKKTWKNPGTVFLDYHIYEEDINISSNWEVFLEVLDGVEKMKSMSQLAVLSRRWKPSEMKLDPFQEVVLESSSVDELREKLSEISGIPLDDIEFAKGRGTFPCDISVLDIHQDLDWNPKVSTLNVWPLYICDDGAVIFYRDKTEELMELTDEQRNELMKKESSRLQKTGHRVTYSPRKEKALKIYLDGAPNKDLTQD
UniProt O94763, whole entry, looked up: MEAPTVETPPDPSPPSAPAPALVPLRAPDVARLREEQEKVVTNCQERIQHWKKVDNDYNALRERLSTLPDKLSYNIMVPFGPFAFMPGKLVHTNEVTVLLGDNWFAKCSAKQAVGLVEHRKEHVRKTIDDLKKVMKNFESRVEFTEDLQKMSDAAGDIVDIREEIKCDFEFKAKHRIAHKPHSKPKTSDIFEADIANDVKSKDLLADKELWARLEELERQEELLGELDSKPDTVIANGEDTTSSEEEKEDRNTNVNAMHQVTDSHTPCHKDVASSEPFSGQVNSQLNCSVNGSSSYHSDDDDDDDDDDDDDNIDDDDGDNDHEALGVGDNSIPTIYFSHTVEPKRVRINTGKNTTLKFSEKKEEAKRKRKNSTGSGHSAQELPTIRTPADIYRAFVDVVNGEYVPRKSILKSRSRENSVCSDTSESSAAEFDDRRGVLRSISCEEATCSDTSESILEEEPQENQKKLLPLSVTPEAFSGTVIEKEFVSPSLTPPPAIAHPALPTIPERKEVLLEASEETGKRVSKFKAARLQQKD
UniProt Q92900: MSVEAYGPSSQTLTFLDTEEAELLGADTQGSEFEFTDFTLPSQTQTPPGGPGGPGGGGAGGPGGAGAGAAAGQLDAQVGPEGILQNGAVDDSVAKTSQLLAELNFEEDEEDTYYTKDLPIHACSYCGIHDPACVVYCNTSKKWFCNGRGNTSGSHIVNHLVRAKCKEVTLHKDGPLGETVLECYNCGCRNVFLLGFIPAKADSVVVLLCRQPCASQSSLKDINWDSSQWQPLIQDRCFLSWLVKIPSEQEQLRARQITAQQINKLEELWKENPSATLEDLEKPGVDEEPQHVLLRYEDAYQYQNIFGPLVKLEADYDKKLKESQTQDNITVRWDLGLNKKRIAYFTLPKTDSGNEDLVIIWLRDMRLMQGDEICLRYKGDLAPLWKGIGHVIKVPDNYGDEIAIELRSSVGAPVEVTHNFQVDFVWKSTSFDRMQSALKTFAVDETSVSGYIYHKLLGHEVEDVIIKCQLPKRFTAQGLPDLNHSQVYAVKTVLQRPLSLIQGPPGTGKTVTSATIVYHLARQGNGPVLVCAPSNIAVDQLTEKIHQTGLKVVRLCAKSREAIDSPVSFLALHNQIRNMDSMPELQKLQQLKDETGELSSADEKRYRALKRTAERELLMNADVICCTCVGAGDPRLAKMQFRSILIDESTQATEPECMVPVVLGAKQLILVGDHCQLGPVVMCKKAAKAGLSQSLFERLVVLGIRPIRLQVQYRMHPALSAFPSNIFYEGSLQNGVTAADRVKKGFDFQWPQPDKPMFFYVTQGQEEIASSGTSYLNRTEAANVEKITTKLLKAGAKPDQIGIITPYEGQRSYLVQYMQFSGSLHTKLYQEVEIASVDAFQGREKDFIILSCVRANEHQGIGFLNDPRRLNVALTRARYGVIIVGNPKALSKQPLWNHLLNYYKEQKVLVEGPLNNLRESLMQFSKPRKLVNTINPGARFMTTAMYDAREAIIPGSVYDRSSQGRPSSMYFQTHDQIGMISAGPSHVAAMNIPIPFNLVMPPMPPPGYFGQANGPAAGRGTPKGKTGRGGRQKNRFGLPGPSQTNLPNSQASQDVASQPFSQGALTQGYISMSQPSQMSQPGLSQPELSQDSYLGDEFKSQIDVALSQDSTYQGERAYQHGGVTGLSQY
UniProt Q9Y3C8: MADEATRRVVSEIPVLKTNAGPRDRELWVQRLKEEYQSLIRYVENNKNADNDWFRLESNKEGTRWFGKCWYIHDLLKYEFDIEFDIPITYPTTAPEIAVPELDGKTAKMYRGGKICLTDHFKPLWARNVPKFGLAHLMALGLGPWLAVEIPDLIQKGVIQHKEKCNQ
UniProt Q9NYU1: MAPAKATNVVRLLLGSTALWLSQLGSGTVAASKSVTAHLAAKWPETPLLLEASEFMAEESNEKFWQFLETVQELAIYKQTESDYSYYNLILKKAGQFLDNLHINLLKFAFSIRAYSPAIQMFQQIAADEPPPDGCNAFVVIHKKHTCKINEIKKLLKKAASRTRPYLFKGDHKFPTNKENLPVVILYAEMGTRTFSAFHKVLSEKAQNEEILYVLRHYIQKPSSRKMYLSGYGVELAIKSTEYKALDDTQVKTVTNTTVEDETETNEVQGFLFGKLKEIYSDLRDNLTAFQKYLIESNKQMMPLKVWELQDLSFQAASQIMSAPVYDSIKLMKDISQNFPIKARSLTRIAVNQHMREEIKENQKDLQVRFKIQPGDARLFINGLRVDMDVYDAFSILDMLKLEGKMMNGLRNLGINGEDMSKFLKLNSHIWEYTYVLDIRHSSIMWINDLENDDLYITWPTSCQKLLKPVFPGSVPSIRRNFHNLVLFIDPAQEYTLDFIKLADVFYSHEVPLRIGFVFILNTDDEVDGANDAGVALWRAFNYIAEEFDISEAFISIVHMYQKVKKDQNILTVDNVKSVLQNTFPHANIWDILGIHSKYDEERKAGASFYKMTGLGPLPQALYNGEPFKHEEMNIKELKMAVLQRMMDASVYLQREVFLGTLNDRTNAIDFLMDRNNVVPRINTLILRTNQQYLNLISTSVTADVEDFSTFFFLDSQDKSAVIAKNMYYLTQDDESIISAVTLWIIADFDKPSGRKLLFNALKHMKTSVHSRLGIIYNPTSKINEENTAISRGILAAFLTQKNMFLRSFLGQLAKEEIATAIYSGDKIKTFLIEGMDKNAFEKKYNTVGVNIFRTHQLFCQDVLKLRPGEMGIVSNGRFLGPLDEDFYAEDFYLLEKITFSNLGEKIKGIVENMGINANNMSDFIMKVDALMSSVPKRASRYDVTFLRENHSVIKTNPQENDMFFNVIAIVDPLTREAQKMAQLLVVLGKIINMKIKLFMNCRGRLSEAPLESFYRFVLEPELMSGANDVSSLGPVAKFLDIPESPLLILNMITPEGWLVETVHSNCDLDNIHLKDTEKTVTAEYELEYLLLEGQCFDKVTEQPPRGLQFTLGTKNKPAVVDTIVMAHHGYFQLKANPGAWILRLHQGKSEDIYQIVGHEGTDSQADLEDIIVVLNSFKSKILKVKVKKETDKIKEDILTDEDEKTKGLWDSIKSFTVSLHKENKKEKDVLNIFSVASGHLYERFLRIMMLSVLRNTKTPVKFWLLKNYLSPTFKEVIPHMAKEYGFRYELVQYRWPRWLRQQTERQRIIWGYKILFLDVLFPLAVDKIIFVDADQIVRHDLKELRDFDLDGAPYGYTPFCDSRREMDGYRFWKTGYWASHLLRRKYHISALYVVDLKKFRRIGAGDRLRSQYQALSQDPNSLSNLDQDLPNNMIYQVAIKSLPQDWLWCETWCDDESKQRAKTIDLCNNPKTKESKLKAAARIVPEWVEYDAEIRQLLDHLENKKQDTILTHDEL
UniProt Q9Y5T5, whole entry, looked up: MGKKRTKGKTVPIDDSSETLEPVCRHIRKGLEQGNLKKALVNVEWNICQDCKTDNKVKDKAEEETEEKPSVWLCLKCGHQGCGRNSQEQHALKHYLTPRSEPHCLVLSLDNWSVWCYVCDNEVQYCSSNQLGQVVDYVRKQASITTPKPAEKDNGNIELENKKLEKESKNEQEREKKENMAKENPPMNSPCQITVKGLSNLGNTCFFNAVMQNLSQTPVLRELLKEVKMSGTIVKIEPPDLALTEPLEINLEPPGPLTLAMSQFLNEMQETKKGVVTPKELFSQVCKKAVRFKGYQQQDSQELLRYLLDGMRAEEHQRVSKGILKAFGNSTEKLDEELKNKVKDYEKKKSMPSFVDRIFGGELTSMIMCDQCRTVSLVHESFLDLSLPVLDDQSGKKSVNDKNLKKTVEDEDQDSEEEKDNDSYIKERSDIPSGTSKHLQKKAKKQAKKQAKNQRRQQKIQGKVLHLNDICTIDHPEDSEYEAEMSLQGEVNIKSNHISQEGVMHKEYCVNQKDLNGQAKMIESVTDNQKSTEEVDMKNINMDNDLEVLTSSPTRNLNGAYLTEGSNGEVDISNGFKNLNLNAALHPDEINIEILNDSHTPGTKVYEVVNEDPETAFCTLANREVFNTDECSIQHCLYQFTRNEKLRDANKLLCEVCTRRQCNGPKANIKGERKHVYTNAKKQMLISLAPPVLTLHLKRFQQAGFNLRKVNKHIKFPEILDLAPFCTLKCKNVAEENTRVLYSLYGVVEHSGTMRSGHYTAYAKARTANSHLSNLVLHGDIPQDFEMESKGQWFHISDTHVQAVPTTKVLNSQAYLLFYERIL
UniProt Q96S82: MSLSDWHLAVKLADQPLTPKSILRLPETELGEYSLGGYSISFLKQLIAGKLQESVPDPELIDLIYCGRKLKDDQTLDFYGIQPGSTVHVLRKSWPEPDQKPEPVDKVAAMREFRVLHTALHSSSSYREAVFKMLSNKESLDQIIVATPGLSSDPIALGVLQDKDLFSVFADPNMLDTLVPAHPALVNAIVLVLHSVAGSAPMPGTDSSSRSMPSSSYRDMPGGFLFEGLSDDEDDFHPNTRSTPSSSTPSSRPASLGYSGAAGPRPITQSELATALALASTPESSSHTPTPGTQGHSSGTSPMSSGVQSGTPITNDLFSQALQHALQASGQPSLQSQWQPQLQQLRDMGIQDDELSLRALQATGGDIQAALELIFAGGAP
UniProt P06132: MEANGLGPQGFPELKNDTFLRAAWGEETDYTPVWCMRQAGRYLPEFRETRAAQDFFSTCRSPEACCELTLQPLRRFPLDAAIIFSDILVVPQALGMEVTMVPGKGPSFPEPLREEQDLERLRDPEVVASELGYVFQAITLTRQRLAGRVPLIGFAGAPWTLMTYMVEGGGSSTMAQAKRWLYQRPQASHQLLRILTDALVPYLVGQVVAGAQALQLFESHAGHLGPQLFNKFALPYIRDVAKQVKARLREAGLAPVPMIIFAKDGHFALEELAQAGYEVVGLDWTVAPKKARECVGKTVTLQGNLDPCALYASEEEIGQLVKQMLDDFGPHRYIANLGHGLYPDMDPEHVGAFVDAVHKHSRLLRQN
UniProt P47985: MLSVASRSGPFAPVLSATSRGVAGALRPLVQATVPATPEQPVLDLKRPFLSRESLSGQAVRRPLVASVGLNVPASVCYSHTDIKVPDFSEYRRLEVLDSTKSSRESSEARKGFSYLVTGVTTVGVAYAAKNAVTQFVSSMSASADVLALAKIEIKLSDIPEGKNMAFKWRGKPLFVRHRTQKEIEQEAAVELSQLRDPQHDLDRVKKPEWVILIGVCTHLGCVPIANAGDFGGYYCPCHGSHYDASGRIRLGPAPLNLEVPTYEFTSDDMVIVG

Each target was assayed with C/C(=N\NC(=O)C1=CC(=CC=C1)S(=O)(=O)N2CCOCC2)/C3=C(C=CC(=C3)Cl)O (assay: log2 fold change, soluble protein after heating vs DMSO (PISA); higher = thermal stabilisation; K562 cells, 10 uM, 30 min; active = over 0.2 and 3.5 SD of the protein, either way, in both replicates (recomputed)).
Procedure, shortened: (§1)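 K562 cells at 2×10^6 cells/mL were given 10 μM compound for 30 min. Aliquots then went through 3 min of heating across 48°C-58°C, were pooled, and were extracted in PBS with 0.5% NP-40 at 4°C, and the supernatant after 21,000xg for 90 min was quantified by TMTpro 16plex LC-MS/MS with channel sums equalised. Thermal stability relative to control samples, from duplicates, is given as log2 fold change.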

log2 fold change, inactive:
UBQLN2 (UniProt Q9UHD9) 0.001
UQCC1 (UniProt Q9NVA1) 0.017
USP1 (UniProt O94782) 0.089
UCK1 (UniProt Q9HA47) 0.11
UCHL3 (UniProt P15374) 0.114
VAC14 (UniProt Q08AM6) -0.008
UTP15 (UniProt Q8TED0) -0.131
VAMP8 (UniProt Q9BV40) -0.121
VASP (UniProt P50552) 0.078
URGCP (UniProt Q8TCY9) -0.013
UBL5 (UniProt Q9BZL1) 0.048
UIMC1 (UniProt Q96RL1) -0.111
USP47 (UniProt Q96K76) 0.034
UNC13D isoform 3 (UniProt Q70J99) -0.022
UNC45A (UniProt Q9H3U1) 0.1
UVRAG (UniProt Q9P2Y5) 0.044
URI1 isoform 4 (UniProt O94763) -0.097
VAMP4 (UniProt O75379) -0.011
UQCRQ (UniProt O14949) -0.037
UBR7 (UniProt Q8N806) 0.042
UPF1 (UniProt Q92900) 0.043
UFC1 (UniProt Q9Y3C8) 0.002
UBE3C (UniProt Q15386) 0.028
UBXN4 (UniProt Q92575) -0.009
VAMP2 (UniProt P63027) 0.198
UCK2 (UniProt Q9BZX2) 0.034
VAPA (UniProt Q9P0L0) -0.034
UGGT2 (UniProt Q9NYU1) -0.062
UROS (UniProt P10746) 0.1
USP16 (UniProt Q9Y5T5) -0.064
UPF2 (UniProt Q9HAU5) -0.045
USE1 (UniProt Q9NZ43) 0
UBL7 (UniProt Q96S82) -0.007
UROD (UniProt P06132) 0.015
UQCRFS1 (UniProt P47985) -0.029
URI1 (UniProt O94763) 0.003
USP10 isoform 2 (UniProt Q14694) 0.051
USP30 (UniProt Q70CQ3) -0.026
UBFD1 (UniProt O14562) 0.052

These targets were tested with C1=CC(=C(C=C1Cl)C2=NC3=NC=CN=C3C(=N2)NC4=CC=NC=C4)F in the same assay as above.
Procedure, shortened: as §1

log2 fold change, inactive:
UBQLN2 (UniProt Q9UHD9) 0.118
UQCC1 (UniProt Q9NVA1) -0.018
USP1 (UniProt O94782) -0.066
UCK1 (UniProt Q9HA47) 0.102
UCHL3 (UniProt P15374) 0.068
VAC14 (UniProt Q08AM6) 0.033
UTP15 (UniProt Q8TED0) -0.519
VAMP8 (UniProt Q9BV40) -0.004
VASP (UniProt P50552) -0.051
URGCP (UniProt Q8TCY9) -0.07
UBL5 (UniProt Q9BZL1) 0.084
UIMC1 (UniProt Q96RL1) -0.214
USP47 (UniProt Q96K76) -0.125
UNC13D isoform 3 (UniProt Q70J99) -0.11
UNC45A (UniProt Q9H3U1) -0.086
UVRAG (UniProt Q9P2Y5) -0.046
URI1 isoform 4 (UniProt O94763) 0.164
VAMP4 (UniProt O75379) 0
UQCRQ (UniProt O14949) 0.07
UBR7 (UniProt Q8N806) 0.084
UPF1 (UniProt Q92900) -0.011
UFC1 (UniProt Q9Y3C8) 0.052
UBE3C (UniProt Q15386) -0.021
UBXN4 (UniProt Q92575) 0.035
VAMP2 (UniProt P63027) 0.08
UCK2 (UniProt Q9BZX2) 0.062
VAPA (UniProt Q9P0L0) 0.023
UGGT2 (UniProt Q9NYU1) -0.029
UROS (UniProt P10746) 0.049
USP16 (UniProt Q9Y5T5) -0.352
UPF2 (UniProt Q9HAU5) -0.301
USE1 (UniProt Q9NZ43) 0.005
UBL7 (UniProt Q96S82) 0.019
UROD (UniProt P06132) -0.018
UQCRFS1 (UniProt P47985) 0.11
URI1 (UniProt O94763) -0.025
USP10 isoform 2 (UniProt Q14694) -0.124
USP30 (UniProt Q70CQ3) 0.063
UBFD1 (UniProt O14562) 0.055
